In paper PMC12040169 (PLOS Biology, 2025):
This is one part of the list.

What follows are compounds tested on T1, CTL2-GFP (C. trachomatis L2/434/Bu, GFP-expressing). Conditions: bulk GFP, single well; 28.5 h, 10 µM; inhibitor.
T1 construct: L2/434/Bu, GFP-expressing
Design: species or system HeLa; Intracellular C. trachomatis growth in HeLa cells, bulk GFP fluorescence relative to DMSO

SMILES	% of control remaining [%]
CCOc1ccccc1-c1noc(CSc2nnc(-c3ccncc3)n2-c2cccc(C)c2)n1 [CBK269076]	111.712
CN(Cc1cccc(C(F)(F)F)c1)C(=O)c1cn(CC2CCCO2)nn1 (stereo not shown) [CBK304360]	109.204
Cc1noc(C)c1S(N)(=O)=O [CBK022939]	111.977
Cc1cc(OC(C)C(=O)Nc2ccc(S(=O)(=O)Nc3onc(C)c3C)cc2)cc(C)c1Cl (stereo not shown) [CBK267887]	94.0193
Cc1n[nH]c(C)c1CCC(=O)N/N=C/c1ccc(Cl)cc1Cl [CBK262901]	94.983
CCCn1nc(C)c(-c2cncn2CC(C)n2nc(C)cc2C)c1C (stereo not shown) [CBK281793]	132.167
COc1cccc(NC(=O)C2C(C(=O)O)C3C=CC2C32CC2)c1 (stereo not shown) [CBK287106]	122.166
COc1ccc(NS(=O)(=O)c2c(Cl)cccc2Cl)c(C(=O)NCc2ccccc2)c1 [CBK113952]	107.498
Cc1ccc(CN(Cc2ccco2)CC(O)COCc2ccco2)s1 (stereo not shown) [CBK304610]	100.285
COCCNC(=O)c1cc(-c2ccccc2C)nc2c1cnn2C(C)C [CBK305392]	99.0256
CCC1(CC)OC(NC(C)c2ccccc2F)=NC1=O (stereo not shown) [CBK132018]	158.722
CSc1nc(NC(=O)c2ccccc2)cc(N2CCNCC2)n1 [CBK050266T]	100
COc1ccc2c(CC(=O)Nc3sccc3C(N)=O)coc2c1 [CBK295137]	159.946
Cn1nc(-c2ccc(S(=O)(=O)Nc3nnn[nH]3)s2)cc1C(F)(F)F [CBK062390]	141.717
CCOC(=O)Cc1nnc(-c2cccc(C(F)(F)F)c2)[nH]1 [CBK304385]	177.713
COc1ccc(-c2cc(C(F)(F)F)nc(S(=O)(=O)CCC(=O)Nc3ccc(C)cc3)n2)cc1 [CBK266235]	205.225
CSCCOc1cc(N2CCCC2)ncn1 [CBK115900]	126.037
CCN(CC)S(=O)(=O)c1ccc(OC)c(NC(=O)C2c3ccccc3Oc3ccccc32)c1 [CBK264774]	124.04
O=C(CSc1ncnc2c1oc1ccccc12)Nc1ccccc1 [CBK057994]	147.271
CC(CNS(=O)(=O)c1cc(Cl)ccc1Cl)CN(C)C (stereo not shown) [CBK266808]	100.785
CC(C)n1c(SCC(=O)Nc2nc(C(C)(C)C)cs2)nc2c1c(=O)n(C)c(=O)n2C [CBK127417]	83.949
O=C(O)CSc1nc2nc3c(cc2c(=O)n1Cc1ccccc1)CCCC3 [CBK286662]	117.708
COc1ccccc1NC(=S)NCCN(C)C [CBK265343]	108.34
Cn1cccc1CNCc1ccccn1 [CBK269818C]	120.985
COc1cnc(-c2ccsc2)c(NC(=O)c2cc(C)oc2C)n1 [CBK145294]	146.848
O=C(c1ccco1)N1CCN(c2cc(-c3ccccc3Oc3ccccc3)ncn2)CC1 [CBK037817]	147.566
Cc1ccc(C2(CN3CCC(NC(=O)C4CC4)CC3)CC2)cc1 [CBK285359]	142.227

SMILES	% of control remaining [%]
COc1ccc(OC(=O)C2COc3ccccc3O2)cc1 (stereo not shown) [CBK131816]	102.474
Cc1cccc(NC(=O)c2cc(NC(=O)C3CCCCC3C(=O)O)ccc2N2CCCCC2)c1 (stereo not shown) [CBK267332]	108.599
CC(C)NC(=S)NC(=O)C1CCC1 [CBK010718]	131.148
COC(=O)C(CC(=O)c1ccc(Br)cc1)n1cccn1 (stereo not shown) [CBK269338]	113.713
O=c1oc2ccccc2n1C1CCN(Cc2nc3ccccc3n2Cc2ccccc2)CC1 [CBK286176]	114.988
CCOC(=O)Cn1c(CCC(=O)O)ccc1-c1ccc(F)cc1 [CBK265916]	187.404
Oc1ccc(CCNc2ncnc3[nH]cnc23)cc1 [CBK017724C]	96.1543
O=c1c(N2CCNCC2)nccn1CCc1cccs1 [CBK050382T]	126.976
CCN(Cc1ccncc1)C(=O)Nc1ccc(N(CC)CC)cc1 [CBK155141]	121.717
COc1ccccc1N1CCN(C[C@H]2C[N@@]3CC[C@H]2C[C@@H]3CNS(C)(=O)=O)CC1 [CBK288770]	113.775
Cc1nc(SCc2cccc(C(=O)O)c2)nc2c1CCCC2 [CBK266997]	143.913
O=C(Cn1cnc2ccc([N+](=O)[O-])cc2c1=O)Nc1ccc(C(=O)O)cc1 [CBK297542]	153.882
O=C(Nc1ccccc1-c1nc2ccccc2s1)c1cc(Br)ccc1Cl [CBK266280]	190.198
Cc1cc(OC(C)C(=O)N(Cc2cccs2)C2CCS(=O)(=O)C2)cc(C)c1Cl (stereo not shown) [CBK293962]	115.541
CC(C)NC(=O)Cn1nc(-c2cc3c(s2)CCC3)oc1=O [CBK283801]	129.58
COc1nc(-c2ccc(N(C)C)nc2)nn1C [CBK307317]	143.682
CC(=O)OC(C(=O)N1CCCCCC1)c1ccc(Br)cc1 (stereo not shown) [CBK007027]	100.637
Cc1ccc(COCSc2nc3ccccc3n2CC(O)CO)cc1C (stereo not shown) [CBK021195]	129.813
Cn1c(=O)c2c(ncn2CC(=O)Nc2ccc(Cl)cc2Cl)n(C)c1=O [CBK133227]	130.716
Cc1nc(-c2ccco2)nc2sc(C(=O)NCc3nnc4ccccn34)c(C)c12 [CBK297773]	140.712
CCOC(=O)C(C)N1C(=O)S/C(=C/c2ccc(Oc3ccc([N+](=O)[O-])cn3)cc2)C1=O (stereo not shown) [CBK265114]	160.473
CCN1CCN(C(=O)CCNC(=O)c2cccc(OC)c2)CC1 [CBK307580]	114.417
OCCCNC(=S)Nc1ccc(Cl)cc1Cl [CBK265264]	124.581
O=c1cc(N2CCCCC2)cnn1Cc1nccs1 [CBK307678]	102.851
CCS(=O)(=O)N1CCC2(C=Cc3cc(F)ccc3O2)CC1 [CBK284747]	74.5007
COc1ccc(-n2nc3cc(C)c(NC(=O)c4ccc(-c5ccc([N+](=O)[O-])cc5OC)o4)cc3n2)cc1 [CBK263766]	123.754
CCCC1COC(c2ccc(C#N)cc2)OC1 (stereo not shown) [CBK033941]	96.7884

Entries above that have bromine:
SMILES	% of control remaining [%]
COC(=O)C(CC(=O)c1ccc(Br)cc1)n1cccn1 (stereo not shown) [CBK269338]	113.713
O=C(Nc1ccccc1-c1nc2ccccc2s1)c1cc(Br)ccc1Cl [CBK266280]	190.198
CC(=O)OC(C(=O)N1CCCCCC1)c1ccc(Br)cc1 (stereo not shown) [CBK007027]	100.637

Remaining list, next part

SMILES	% of control remaining [%]
COc1ccccc1C(=O)N1CCC(Cc2ccc(-c3ccccc3)cc2)(C(N)=O)CC1 [CBK285774]	139.583
CC(C)[C@H]1CN(Cc2ccco2)CCN1Cc1ccccn1 [CBK284275]	83.5575
O=C1c2ccccc2C(=O)N1Cc1ccc(S(=O)(=O)NCc2ccc3c(c2)OCO3)cc1 [CBK264180]	134.164
O=c1c2sccc2[nH]c(=S)n1CCc1ccccc1 [CBK288486]	87.6925
NS(=O)(=O)c1ccc(C(=O)Nc2cnc(-c3ccc(F)cc3)c(-c3ccsc3)n2)cc1 [CBK036998]	179.176
COc1ccc(-c2nnc(SCCC(=O)O)[nH]2)cc1 [CBK300506]	152.985
NC(=O)C1(Cc2ccccc2-c2ccccc2)CCN(C(=O)CCc2ccccc2)CC1 [CBK285595]	121.81
O=C(CCc1nc2sc3c(c2c(=O)[nH]1)CCCC3)N1CCCC1 [CBK306069]	148.469
Cc1ccc(S(=O)(=O)NCCNc2ccc(C(F)(F)F)cc2[N+](=O)[O-])cc1 [CBK264945]	121.781
COc1ccc(C(C)C)cc1-c1cncc(N2CCN(c3ccccc3C#N)CC2)n1 [CBK037927]	104.51
Nc1ncc(-c2ccc(C(=O)N3CCOCC3)cc2)nc1C(=O)NC1CCCC1 [CBK149155]	77.0227
COc1ccc(/N=C2\S[C@H]3[C@H]([C@@H](O)[C@H](O)C[C@@H]3C(N)=O)N2Cc2cccs2)cc1 [CBK288943]	121.024
CCOC(=O)C1CCN(S(=O)(=O)c2c(C)noc2C)CC1 [CBK051112]	144.682
O=C(c1ccc(NC2CC2)nc1)N1CCC(CN2CCOCC2)CC1 [CBK305970]	70.8568
Cc1cc(C)nc(Nc2noc(-c3ccccc3)n2)n1 [CBK269971]	131.22
CC(=O)OCc1ccc(CN2CCCCCC2c2cc(C)no2)o1 (stereo not shown) [CBK283007]	127.166
CCCn1c(O)cc(=O)nc1SCC(=O)NCc1ccc(OC)c(OC)c1 [CBK295592]	127.55
COc1ccc2[nH]c3c(c2c1)CCNC31CCN(Cc2ccc(S(C)(=O)=O)cc2)CC1 [CBK039753]	133.452
O=C(NCc1cccnc1)c1ccc(N2CCN(C(=O)c3ccccc3C(F)(F)F)CC2)nn1 [CBK153215]	100.76
Cc1noc(C)c1NC(=O)c1cscn1 [CBK200397]	125.673
CNC(=O)CSc1ncnc2c1cnn2-c1ccc(F)cc1 [CBK287633]	99.039
Cn1c(/N=N/c2c(-c3ccccc3)n(C)c3ccccc23)nc2ccccc21 [CBK262114]	100
Nc1nonc1-n1nnc(C(=O)O)c1-c1cccs1 [CBK266674]	119.939
COc1ccc(Cn2c(=O)n(S(=O)(=O)c3ccc(-c4cc(C(F)(F)F)n(C)n4)s3)c3ccccc32)cc1 [CBK106552]	139.655
CCC(NC(=O)Nc1ccc(N2CCOCC2)nc1)c1cnn(CC)c1 (stereo not shown) [CBK305172]	107.118
